# Assay results reported in PMC9879991, “Biomolecular condensates formed by designer minimalistic peptides” (Nature Communications, 2023).
# No end group written: not given here.
# How the values were obtained:
# [1] = Urea analysis: 13C alpha chemical shift changes upon addition of 8 M urea; settings: denaturating effects induced by 8 M urea
# [2] = NaCl-induced 13C chemical shift changes of WGR-1 at 5 and 20 mM
# [3] = 5mM peptide, first average column (high)
# [4] = 5mM peptide, second average column (low)
# [5] = 5 mM, with and without 100mM NaCl, pH 8, 300 K
sequence,measurement,setting,value
WGRGRGRGWPGVGY [WGR-1],Pro10-Cα chemical shift difference between 0 and 8 M urea,[1],0.05 ppm
same,Trp1-Cα chemical shift difference between 0 and 8 M urea,[1],0.12 ppm
same,Trp9-Cα chemical shift difference between 0 and 8 M urea,[1],0.15 ppm
same,Tyr/Phe14- Cα chemical shift difference between 0 and 8 M urea,[1],0.37 ppm
same,Val12-Cα (maj.) chemical shift difference between 0 and 8 M urea,[1]; major form,0.02 ppm
same,Val12-Cα (min.) chemical shift difference between 0 and 8 M urea,[1]; minor form,0.08 ppm
same,"Average Δδ* [Hz], aa P","[2]; 5mM peptide, average over all P positions",1.44 Hz
same,"Average Δδ* [Hz], aa R","[2]; 5mM peptide, average over all R positions",2.48 Hz
same,"Average Δδ* [Hz], aa V","[2]; 5mM peptide, average over all V positions",2.36 Hz
same,"Average Δδ* [Hz], aa Y","[2]; 5mM peptide, average over all Y positions",1.64 Hz
same,"Average Δδ* [Hz], aa W1",[2]; [3],4.26 Hz
same,"Average Δδ* [Hz], aa W9",[2]; [3],2.46 Hz
same,"Average Δδ* [Hz], aa W1",[2]; [4],3.76 Hz
same,"Average Δδ* [Hz], aa W9",[2]; [4],2.07 Hz
same,Δδ* 13Cα R (δ 56.31 ppm),[2]; [5],5.22 Hz
same,Δδ* 13Cα R (δ 56.42 ppm),[2]; [5],-2.08 Hz
same,Δδ* 13Cα R (δ 56.62 ppm),[2]; [5],-0.87 Hz
same,Δδ* 13Cα V (δ 62.41 ppm),[2]; [5],2.81 Hz
same,Δδ* 13Cα Vm (δ 62.18 ppm),[2]; [5],2.46 Hz
same,Δδ* 13Cα W1 (δ 57.35 ppm),[2]; [5],-15.12 Hz
same,Δδ* 13Cα Y (δ 59.09 ppm),[2]; [5],0.97 Hz
same,Δδ* 13Cβ P (δ 32.77 ppm),[2]; [5],0 Hz
same,Δδ* 13Cβ R (δ 30.44 ppm),[2]; [5],3.62 Hz
same,Δδ* 13Cβ R (δ 30.49 ppm),[2]; [5],3.55 Hz
same,Δδ* 13Cβ R (δ 30.54 ppm),[2]; [5],2.6 Hz
same,Δδ* 13Cβ R (δ 30.69 ppm),[2]; [5],-3.14 Hz
same,Δδ* 13Cβ R (δ 30.7 ppm),[2]; [5],-1.51 Hz
same,Δδ* 13Cβ V (δ 32.84 ppm),[2]; [5],-0.97 Hz
same,Δδ* 13Cβ Vm (δ 33.02 ppm),[2]; [5],5.19 Hz
same,Δδ* 13Cβ W9m (δ 29.07 ppm),[2]; [5],1.13 Hz
same,Δδ* 13Cβ W (δ 31.66 ppm),[2]; [5],-33.31 Hz
same,Δδ* 13Cβ W (δ 31.86 ppm),[2]; [5],-1.53 Hz
same,Δδ* 13Cβ Y (δ 39.36 ppm),[2]; [5],0.34 Hz
same,Δδ* 13Cβ Ym (δ 39.39 ppm),[2]; [5],0.21 Hz
same,Δδ* 13Cγ P (δ 27.22 ppm),[2]; [5],0.11 Hz
same,Δδ* 13Cγ Pm (δ 24.15 ppm),[2]; [5],2.67 Hz
same,Δδ* 13Cγ R (δ 26.77 ppm),[2]; [5],4.08 Hz
same,Δδ* 13Cγ R (δ 26.86 ppm),[2]; [5],3.24 Hz
same,Δδ* 13Cγ R (δ 26.94 ppm),[2]; [5],4.26 Hz
same,Δδ* 13Cγ R (δ 27.03 ppm),[2]; [5],3.07 Hz
same,Δδ* 13Cγ V (δ 20.36 ppm),[2]; [5],1.45 Hz
same,Δδ* 13Cγ V (δ 21.06 ppm),[2]; [5],2.82 Hz
same,Δδ* 13Cγ Vm (δ 20.01 ppm),[2]; [5],2.26 Hz
same,Δδ* 13Cγ Vm (δ 21.03 ppm),[2]; [5],2.22 Hz
same,Δδ* 13Cγ W1 (δ 110.85 ppm),[2]; [5],-34 Hz
same,Δδ* 13Cγ W9 (δ 110.35 ppm),[2]; [5],1.88 Hz
same,Δδ* 13Cγ W9m (δ 110.76 ppm),[2]; [5],2.94 Hz
same,Δδ* 13Cγ Y (δ 131.87 ppm),[2]; [5],2.84 Hz
same,Δδ* 13Cγ Ym (δ 131.85 ppm),[2]; [5],2.61 Hz
same,Δδ* 13Cδ1 W1 (δ 127.65 ppm),[2]; [5],11.8 Hz
same,Δδ* 13Cδ1 W9 (δ 127.31 ppm),[2]; [5],1.01 Hz
same,Δδ* 13Cδ1 W9m (δ 127.47 ppm),[2]; [5],1.25 Hz
same,Δδ* 13Cδ2 W1 (δ 129.52 ppm),[2]; [5],-2.18 Hz
same,Δδ* 13Cδ2 W9 (δ 129.48 ppm),[2]; [5],1.66 Hz
same,Δδ* 13Cδ2 W9m (δ 129.36 ppm),[2]; [5],1.6 Hz
same,Δδ* 13Cδ P (δ 50.76 ppm),[2]; [5],2.69 Hz
same,Δδ* 13Cδ Pm (δ 49.86 ppm),[2]; [5],0.97 Hz
same,Δδ* 13Cδ R (δ 43.08 ppm),[2]; [5],3.55 Hz
same,Δδ* 13Cδ R (δ 43.14 ppm),[2]; [5],3.63 Hz
same,Δδ* 13Cδ R (δ 43.23 ppm),[2]; [5],3.76 Hz
same,Δδ* 13Cδ R (δ 43.27 ppm),[2]; [5],4.3 Hz
same,Δδ* 13Cδ R (δ 43.29 ppm),[2]; [5],3.06 Hz
same,Δδ* 13Cδ Y (δ 133.28 ppm),[2]; [5],0.74 Hz
same,Δδ* 13Cε2 W1 (δ 138.96 ppm),[2]; [5],1.32 Hz
same,Δδ* 13Cε2 W9 (δ 138.76 ppm),[2]; [5],0.75 Hz
same,Δδ* 13Cε2 W9m (δ 138.89 ppm),[2]; [5],0.58 Hz
same,Δδ* 13Cε W1 (δ 120.97 ppm),[2]; [5],-0.14 Hz
same,Δδ* 13Cε W9 (δ 120.81 ppm),[2]; [5],3.85 Hz
same,Δδ* 13Cε W9m (δ 120.73 ppm),[2]; [5],2.6 Hz
same,Δδ* 13Cε Y (δ 117.99 ppm),[2]; [5],2.69 Hz
same,Δδ* 13Cε Ym (δ 118.15 ppm),[2]; [5],1.31 Hz
same,Δδ* 13Cζ2 W1 (δ 114.65 ppm),[2]; [5],3.84 Hz
same,Δδ* 13Cζ2 W9 (δ 114.67 ppm),[2]; [5],1.51 Hz
same,Δδ* 13Cζ2 W9m (δ 114.7 ppm),[2]; [5],2.38 Hz
same,Δδ* 13Cζ3 W (δ 122.03 ppm),[2]; [5],5.86 Hz
same,Δδ* 13Cζ3 W (δ 122.18 ppm),[2]; [5],2.36 Hz
same,Δδ* 13Cζ Y (δ 156.94 ppm),[2]; [5],0 Hz
same,Δδ* 13Cζ Ym (δ 156.96 ppm),[2]; [5],-0.47 Hz
same,Δδ* 13Cη2 W1 (δ 124.67 ppm),[2]; [5],4.66 Hz
same,Δδ* 13Cη2 W9 (δ 124.71 ppm),[2]; [5],1.94 Hz
same,Δδ* 13Cη2 W9m (δ 124.84 ppm),[2]; [5],0.26 Hz
same,Δδ* C' Gm (δ 172.81 ppm),[2]; [5],3.31 Hz
same,Δδ* C' Gm (δ 172.85 ppm),[2]; [5],2.78 Hz
same,Δδ* C' Gm (δ 173.02 ppm),[2]; [5],0.65 Hz
same,Δδ* C' P10 (δ 177.15 ppm),[2]; [5],2.71 Hz
same,Δδ* C' R (δ 176.73 ppm),[2]; [5],2.7 Hz
same,Δδ* C' R (δ 176.75 ppm),[2]; [5],3.99 Hz
same,Δδ* C' R (δ 176.83 ppm),[2]; [5],-1.51 Hz
same,Δδ* C' R (δ 176.9 ppm),[2]; [5],1.94 Hz
same,Δδ* C' R (δ 176.91 ppm),[2]; [5],1.82 Hz
same,Δδ* C' V (δ 176.44 ppm),[2]; [5],2.39 Hz
same,Δδ* C' Vm (δ 176.34 ppm),[2]; [5],2.26 Hz
same,Δδ* C' W1 (δ 177.56 ppm),[2]; [5],-86.1 Hz
same,Δδ* C' W9 (δ 174.72 ppm),[2]; [5],5.22 Hz
